Test results from paper PMC9809944.
These are yes or no findings as the source states them, for the method shown. For part of these data: In cells and extracts the contact can be indirect. Some entries that bind do so weakly or less than the wild type. Each block holds one molecule with its values, some of them ahead of it.

By UniProt entry, the sequences of proteins in these tests, tags left out. Residues count along the entry.
UniProt Q8K3Z9: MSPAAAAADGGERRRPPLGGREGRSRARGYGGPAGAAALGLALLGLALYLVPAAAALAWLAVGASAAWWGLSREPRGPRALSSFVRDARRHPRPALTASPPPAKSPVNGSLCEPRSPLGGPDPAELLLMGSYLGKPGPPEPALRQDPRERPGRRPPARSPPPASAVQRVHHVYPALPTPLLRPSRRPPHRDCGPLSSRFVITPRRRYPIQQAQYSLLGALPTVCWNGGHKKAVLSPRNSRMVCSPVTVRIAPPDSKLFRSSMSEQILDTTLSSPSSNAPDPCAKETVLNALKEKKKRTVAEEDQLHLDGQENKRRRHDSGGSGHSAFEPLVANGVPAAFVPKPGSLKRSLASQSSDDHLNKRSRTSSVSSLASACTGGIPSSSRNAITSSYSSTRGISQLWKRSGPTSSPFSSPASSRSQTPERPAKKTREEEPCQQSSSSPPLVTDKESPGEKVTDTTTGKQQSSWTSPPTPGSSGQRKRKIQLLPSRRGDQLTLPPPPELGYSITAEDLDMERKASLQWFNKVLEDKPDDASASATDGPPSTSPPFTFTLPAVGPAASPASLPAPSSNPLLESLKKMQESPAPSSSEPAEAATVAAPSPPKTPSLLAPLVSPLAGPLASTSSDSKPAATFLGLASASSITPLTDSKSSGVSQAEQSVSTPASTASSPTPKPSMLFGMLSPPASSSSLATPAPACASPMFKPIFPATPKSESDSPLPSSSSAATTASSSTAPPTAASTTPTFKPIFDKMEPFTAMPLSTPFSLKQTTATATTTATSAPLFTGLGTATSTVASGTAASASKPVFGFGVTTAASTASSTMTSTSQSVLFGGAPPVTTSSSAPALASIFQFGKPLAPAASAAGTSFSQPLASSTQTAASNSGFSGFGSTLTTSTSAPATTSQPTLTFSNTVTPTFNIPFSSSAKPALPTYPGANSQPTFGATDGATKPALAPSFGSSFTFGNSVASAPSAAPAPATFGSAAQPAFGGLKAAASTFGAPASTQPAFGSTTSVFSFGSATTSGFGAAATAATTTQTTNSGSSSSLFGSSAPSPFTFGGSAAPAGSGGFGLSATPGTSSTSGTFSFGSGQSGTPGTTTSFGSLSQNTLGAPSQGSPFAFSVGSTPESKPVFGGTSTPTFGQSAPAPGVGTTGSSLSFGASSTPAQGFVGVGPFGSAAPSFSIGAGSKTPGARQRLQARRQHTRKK
UniProt P20029, residues 20-655: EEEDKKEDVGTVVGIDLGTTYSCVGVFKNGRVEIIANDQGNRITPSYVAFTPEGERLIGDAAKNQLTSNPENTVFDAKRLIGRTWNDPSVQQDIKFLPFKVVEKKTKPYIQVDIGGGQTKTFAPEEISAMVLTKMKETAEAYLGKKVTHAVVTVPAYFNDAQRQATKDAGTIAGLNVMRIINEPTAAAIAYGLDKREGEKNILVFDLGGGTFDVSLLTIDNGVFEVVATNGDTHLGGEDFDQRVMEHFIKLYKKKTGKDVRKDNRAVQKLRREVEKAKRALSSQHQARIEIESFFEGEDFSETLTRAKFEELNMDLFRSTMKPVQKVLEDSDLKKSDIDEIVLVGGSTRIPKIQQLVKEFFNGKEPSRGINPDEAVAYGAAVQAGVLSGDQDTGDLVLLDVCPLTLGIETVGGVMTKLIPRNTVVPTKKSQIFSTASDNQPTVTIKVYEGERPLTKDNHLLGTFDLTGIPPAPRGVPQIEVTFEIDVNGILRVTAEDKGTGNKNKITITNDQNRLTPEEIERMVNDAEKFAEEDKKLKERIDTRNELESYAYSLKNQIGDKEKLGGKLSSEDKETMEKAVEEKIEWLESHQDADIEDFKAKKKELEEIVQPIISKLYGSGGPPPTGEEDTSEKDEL
UniProt P70168: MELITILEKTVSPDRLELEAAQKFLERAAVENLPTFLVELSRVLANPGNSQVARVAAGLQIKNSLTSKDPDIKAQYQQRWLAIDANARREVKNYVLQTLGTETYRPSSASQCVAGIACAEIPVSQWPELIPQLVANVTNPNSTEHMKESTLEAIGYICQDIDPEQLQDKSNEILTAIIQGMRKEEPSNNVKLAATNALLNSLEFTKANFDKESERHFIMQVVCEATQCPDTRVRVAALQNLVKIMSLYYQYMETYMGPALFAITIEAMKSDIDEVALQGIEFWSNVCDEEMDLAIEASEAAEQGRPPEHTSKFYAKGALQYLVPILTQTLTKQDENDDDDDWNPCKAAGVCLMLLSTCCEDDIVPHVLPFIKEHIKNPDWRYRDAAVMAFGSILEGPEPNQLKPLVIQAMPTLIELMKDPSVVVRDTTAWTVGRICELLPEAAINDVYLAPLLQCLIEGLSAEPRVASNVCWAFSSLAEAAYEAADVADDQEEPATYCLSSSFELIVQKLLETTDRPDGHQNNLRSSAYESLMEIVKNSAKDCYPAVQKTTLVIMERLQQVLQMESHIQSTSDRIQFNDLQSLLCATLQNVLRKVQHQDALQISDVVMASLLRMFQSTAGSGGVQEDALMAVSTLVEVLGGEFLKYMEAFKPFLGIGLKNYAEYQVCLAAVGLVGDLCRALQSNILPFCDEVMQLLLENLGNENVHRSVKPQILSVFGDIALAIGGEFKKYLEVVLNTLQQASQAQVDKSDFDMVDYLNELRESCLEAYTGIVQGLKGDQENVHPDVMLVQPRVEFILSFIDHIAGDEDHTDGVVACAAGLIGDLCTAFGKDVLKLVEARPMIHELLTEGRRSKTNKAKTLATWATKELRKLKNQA

How the values were obtained:
[1] = target: POM121 (nuclear pore membrane protein 121), endogenous (mouse (endogenous in NSC34)) (UniProt Q8K3Z9); assay: co-IP; immunoprecipitation with the POM121 antibody from NSC34 lysate, all proteins endogenous; IP lysis buffer 50 mM NaCl, 0.5% Nonidet P-40, 10 mM Tris-HCl pH 8.0
[2] = target: SIGMAR1/Sigma-1 receptor-GFP (mouse) (UniProt O55242); assay: co-IP; NSC34 cells co-expressing POM121-MYC/DDK and SIGMAR1-GFP; immunoprecipitating antibody not named in the legend; IP lysis buffer 50 mM NaCl, 0.5% Nonidet P-40, 10 mM Tris-HCl pH 8.0; with and without POM121-MYC/DDK overexpression
[3] = target: SIGMAR1/Sigma-1 receptor-EYFP (mouse) (UniProt O55242); assay: co-IP; cells transiently transfected (20-24 h) with SIGMAR1-EYFP, treated with pridopidine 0, 0.5, 1 or 5 µM; procedure as the immunoprecipitation method; HRP-conjugated secondary antibody; bands normalised to SIGMAR1-YFP; pridopidine lowered the HSPA5 association (~50% dissociation at 0.5 and 1 µM, ~30% at 5 µM) and raised the POM121 association at 0.5 and 1 µM
[4] = target: HA-SIGMAR1/Sigma-1 receptor (mouse) (UniProt O55242); assay: co-IP; HA antibody used to pull down HA-SIGMAR1 from lysates of transfected NSC34 cells; IP lysis buffer 50 mM NaCl, 0.5% Nonidet P-40, 10 mM Tris-HCl pH 8.0; protein-A/G agarose, 4°C; control IgG; also done after overnight transfection with GFP-(G4C2)31 RNA repeats (decreased association)
[5] = target: T1, SIGMAR1/Sigma-1 receptor, endogenous (mouse (endogenous in NSC34)), O55242; assay: native gel or EMSA; NSC34 cells pretreated with pridopidine for 1 h; lysate (25 µg) on NativePAGE Novex 4-16% Bis-Tris gel, immunoblot with SIGMAR1 antibody B5; pridopidine reduced oligomerization at 1 µM but not at 5 µM; conditions: remark: other sources report otherwise
T1 chain: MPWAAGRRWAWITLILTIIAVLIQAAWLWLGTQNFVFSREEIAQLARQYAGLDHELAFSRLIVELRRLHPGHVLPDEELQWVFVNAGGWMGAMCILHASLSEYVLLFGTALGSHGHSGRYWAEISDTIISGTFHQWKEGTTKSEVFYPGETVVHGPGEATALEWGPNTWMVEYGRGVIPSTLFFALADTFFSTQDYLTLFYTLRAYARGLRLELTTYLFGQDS

Molecule: SIGMAR1/Sigma-1 receptor, endogenous (from UniProt O55242-1 1-223)
binding [1]: binds

Molecule: HSPA5/BiP (heat shock protein 5), endogenous (from UniProt P20029 20-655)
binding [3]: binds

B1: SIGMAR1/Sigma-1 receptor, endogenous, O55242-1 1-223 (protein)
chain: T1 chain
binding [5]: binds

Results, then the molecule that gave them:

binding [2]: binds
Molecule: POM121-MYC/DDK (from UniProt Q8K3Z9 1-1200)

binding [1]: binds
binding [2]: binds
binding [4]: binds
Molecule: KPNB1/importinβ1, endogenous (from UniProt P70168 1-876)

binding [4]: binds
binding [3]: binds
Molecule: POM121 (nuclear pore membrane protein 121), endogenous (from UniProt Q8K3Z9 1-1200)
